We go through one compound from patent publication US9605041B2, “Regulatory proteins and inhibitors” (INTRA-CELLULAR THERAPIES, INC., priority 2009, dated 2017).

As a reminder, the IC50 is the concentration at which inhibition is half-maximal.

The assay concerns the target PDGF receptor. Nature of the assay: Kinase profiling (Millipore standard assay), PDGF receptor. To be noted: read-out: IC50 against PDGF receptor; ATP=45 μM.

Take `Cc1ccc(NC(=O)c2ccc(CN3CCN(C)CC3)cc2)cc1Nc1nccc(-c2cccnc2)n1` [imatinib, reference compound]: the IC50 is 4.8 µM.
